Consider six molecules from publication doi:10.1101/2020.07.23.217018.

Chains of the proteins cited; added tags and fusions are not shown. Residues count along the entry.
UniProt P70232, residues 26-1209: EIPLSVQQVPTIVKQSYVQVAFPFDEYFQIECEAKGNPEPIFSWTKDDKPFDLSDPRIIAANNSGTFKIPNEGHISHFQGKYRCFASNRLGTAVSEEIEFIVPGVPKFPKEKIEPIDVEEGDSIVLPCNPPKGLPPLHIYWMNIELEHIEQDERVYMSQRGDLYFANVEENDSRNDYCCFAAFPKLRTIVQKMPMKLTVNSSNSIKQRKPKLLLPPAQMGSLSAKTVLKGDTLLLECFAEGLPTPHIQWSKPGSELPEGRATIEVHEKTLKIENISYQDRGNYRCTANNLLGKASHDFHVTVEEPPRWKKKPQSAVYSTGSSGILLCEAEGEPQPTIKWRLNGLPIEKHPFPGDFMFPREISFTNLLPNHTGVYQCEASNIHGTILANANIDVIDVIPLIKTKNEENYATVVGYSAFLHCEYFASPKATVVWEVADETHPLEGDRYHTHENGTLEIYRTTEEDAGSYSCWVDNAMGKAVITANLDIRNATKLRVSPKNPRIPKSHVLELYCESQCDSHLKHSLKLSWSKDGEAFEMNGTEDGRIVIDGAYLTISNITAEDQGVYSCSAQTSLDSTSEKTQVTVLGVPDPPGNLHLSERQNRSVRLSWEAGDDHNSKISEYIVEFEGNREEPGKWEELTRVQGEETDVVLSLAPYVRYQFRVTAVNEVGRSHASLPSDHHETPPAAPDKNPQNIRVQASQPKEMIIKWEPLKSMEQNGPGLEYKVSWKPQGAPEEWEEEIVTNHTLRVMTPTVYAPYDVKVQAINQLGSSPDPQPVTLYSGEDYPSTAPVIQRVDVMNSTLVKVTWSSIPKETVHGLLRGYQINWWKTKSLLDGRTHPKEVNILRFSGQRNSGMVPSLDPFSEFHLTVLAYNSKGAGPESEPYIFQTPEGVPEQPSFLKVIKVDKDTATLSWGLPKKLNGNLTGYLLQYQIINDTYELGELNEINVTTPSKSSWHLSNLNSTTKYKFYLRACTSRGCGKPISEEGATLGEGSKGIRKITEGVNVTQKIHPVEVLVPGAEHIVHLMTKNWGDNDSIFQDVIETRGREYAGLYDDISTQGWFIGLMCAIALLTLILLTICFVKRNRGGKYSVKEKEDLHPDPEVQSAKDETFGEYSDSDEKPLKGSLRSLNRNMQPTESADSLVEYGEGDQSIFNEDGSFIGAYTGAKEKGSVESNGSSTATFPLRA
UniProt P02730: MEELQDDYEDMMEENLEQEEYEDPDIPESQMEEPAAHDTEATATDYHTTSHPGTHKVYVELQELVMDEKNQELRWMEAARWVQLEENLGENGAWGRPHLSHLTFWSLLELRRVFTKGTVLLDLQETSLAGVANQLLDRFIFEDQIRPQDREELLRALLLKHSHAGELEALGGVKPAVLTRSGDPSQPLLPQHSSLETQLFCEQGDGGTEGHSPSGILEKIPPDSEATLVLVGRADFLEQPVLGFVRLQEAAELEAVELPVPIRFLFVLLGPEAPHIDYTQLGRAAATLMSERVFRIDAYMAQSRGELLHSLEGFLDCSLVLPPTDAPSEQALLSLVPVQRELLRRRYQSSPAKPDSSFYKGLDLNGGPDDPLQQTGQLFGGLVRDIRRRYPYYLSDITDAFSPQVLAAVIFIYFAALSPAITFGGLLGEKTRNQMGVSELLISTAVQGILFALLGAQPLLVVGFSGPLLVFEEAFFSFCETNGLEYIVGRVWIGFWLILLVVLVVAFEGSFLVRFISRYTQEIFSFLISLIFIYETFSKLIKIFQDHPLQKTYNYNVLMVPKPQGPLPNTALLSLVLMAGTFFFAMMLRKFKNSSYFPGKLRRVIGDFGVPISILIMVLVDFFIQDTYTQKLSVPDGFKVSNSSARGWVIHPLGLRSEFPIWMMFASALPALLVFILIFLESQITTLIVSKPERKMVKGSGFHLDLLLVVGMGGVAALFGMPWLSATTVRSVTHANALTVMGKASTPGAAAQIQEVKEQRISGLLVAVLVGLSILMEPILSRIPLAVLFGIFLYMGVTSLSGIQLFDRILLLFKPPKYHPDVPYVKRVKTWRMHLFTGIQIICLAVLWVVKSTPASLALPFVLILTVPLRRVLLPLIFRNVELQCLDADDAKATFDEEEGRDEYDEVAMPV
UniProt P35441, residues 19-1170: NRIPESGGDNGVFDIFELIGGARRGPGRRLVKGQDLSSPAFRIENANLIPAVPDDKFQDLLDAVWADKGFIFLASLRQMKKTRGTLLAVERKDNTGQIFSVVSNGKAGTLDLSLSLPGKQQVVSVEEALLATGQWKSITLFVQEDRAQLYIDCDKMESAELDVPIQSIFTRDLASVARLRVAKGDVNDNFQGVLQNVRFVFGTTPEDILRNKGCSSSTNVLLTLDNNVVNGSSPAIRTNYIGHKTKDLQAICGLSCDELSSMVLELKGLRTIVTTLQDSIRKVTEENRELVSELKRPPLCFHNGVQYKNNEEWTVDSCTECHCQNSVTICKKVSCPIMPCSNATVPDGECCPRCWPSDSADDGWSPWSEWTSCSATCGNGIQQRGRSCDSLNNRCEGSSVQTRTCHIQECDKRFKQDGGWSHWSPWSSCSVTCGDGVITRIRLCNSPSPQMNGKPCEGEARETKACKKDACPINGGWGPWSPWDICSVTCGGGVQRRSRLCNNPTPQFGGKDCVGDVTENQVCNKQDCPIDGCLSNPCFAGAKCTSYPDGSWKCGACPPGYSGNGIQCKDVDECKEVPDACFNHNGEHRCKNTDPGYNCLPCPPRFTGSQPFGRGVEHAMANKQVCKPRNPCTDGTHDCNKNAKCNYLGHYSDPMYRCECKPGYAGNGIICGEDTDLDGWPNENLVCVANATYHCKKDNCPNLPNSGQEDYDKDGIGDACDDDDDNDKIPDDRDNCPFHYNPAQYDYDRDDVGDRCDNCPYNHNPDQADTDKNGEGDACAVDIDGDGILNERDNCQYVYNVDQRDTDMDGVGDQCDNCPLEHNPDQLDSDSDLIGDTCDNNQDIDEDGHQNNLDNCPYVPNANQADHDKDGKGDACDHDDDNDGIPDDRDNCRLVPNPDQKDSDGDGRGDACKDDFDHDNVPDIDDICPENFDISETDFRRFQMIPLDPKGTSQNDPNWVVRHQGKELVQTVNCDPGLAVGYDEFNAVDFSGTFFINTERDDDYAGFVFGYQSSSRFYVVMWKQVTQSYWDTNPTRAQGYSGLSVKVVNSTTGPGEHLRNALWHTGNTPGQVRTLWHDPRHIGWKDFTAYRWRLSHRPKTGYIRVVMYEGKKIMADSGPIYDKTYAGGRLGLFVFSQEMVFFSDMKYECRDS

Like-named read-outs stand apart in the source and are kept apart here. Results are given in words; binding and its absence hold for the method and conditions named. Binding seen in cells or lysates may run through a third protein. Here binding means that the protein was enriched with, or labelled near, the bait; the list need not be complete. For some of these results: A no says only that the protein was not detected with the bait.

Experiment [1] deals with T1, close homolog of L1 (human CHL1) (human (endogenous in serum EVs and LK2 EVs)) (UniProt O00533).
T1 sequence: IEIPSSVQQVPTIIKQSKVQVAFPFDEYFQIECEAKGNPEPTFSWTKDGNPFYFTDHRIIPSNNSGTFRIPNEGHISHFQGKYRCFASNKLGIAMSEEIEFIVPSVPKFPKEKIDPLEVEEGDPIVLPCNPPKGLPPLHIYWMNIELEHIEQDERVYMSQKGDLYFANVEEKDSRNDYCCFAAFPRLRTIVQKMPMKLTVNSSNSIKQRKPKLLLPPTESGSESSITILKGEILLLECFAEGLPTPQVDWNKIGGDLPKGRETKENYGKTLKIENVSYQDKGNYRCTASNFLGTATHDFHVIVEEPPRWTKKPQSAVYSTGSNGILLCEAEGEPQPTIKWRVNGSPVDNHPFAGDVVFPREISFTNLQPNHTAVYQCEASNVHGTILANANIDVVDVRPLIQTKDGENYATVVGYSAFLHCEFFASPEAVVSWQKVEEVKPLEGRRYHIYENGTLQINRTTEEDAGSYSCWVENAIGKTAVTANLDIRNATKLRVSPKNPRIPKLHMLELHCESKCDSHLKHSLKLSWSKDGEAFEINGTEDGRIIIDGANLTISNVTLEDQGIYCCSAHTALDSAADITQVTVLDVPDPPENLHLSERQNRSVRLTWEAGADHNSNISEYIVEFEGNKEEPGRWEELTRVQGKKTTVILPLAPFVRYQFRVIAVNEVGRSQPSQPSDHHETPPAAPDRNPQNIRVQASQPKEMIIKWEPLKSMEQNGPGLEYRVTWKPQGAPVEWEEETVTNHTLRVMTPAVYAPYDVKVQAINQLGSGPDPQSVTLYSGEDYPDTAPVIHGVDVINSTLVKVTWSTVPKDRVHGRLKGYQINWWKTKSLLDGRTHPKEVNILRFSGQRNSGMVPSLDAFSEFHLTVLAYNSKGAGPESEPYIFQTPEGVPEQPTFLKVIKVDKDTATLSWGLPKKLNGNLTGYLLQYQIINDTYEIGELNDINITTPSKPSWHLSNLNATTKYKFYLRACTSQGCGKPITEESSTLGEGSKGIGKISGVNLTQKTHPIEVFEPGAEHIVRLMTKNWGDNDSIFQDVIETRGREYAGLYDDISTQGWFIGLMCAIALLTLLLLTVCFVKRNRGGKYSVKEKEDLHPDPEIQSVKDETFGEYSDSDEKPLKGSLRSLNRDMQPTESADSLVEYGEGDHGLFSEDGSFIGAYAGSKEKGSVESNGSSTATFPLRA
The experiment can be described thus: proximity labelling.

Experiment [2] deals with T1, close homolog of L1 (human CHL1) (human (endogenous in serum EVs and LK2 EVs)). Nature of the experiment: proximity labelling. The source holds these as a separate data set.
Experiment [3] shares this target. The experiment can be described thus: proximity labelling. This is another data set of the same source.
For experiment [4], the target named is close homolog of L1 (mouse CHL1) (mouse (endogenous in serum EVs)) (UniProt P70232). The experiment can be described thus: proximity labelling.
Experiment [5] shares this target. Nature of the experiment: proximity labelling. This is another data set of the same source.
The target is the same in experiment [6]. Nature of the experiment: proximity labelling. This is another data set of the same source.
Experiment [7] has the same target. The experiment can be described thus: condition: only in serum EVs of small tumor-bearing.

Turning to “SLC4A1 (human) (from UniProt P02730 1-911)”, in experiment [1], the binding result is “binds”. With caspase 14 (human), the binding result in experiment [2], in experiment [3] and in experiment [1] was “binds” each time. Consider “Thrombospondin 1 (mouse THBS1) (from UniProt P35441 19-1170)”, for which the binding result in experiment [4] was “binds”.

B1: SLC4A1 (mouse) (protein, UniProt P04919 1-929)
chain: MGDMRDHEEVLEIPDRDSEEELENIIGQIAYRDLTIPVTEMQDPEALPTEQTATDYVPSSTSTPHPSSGQVYVELQELMMDQRNQELQWVEAAHWIGLEENLREDGVWGRPHLSYLTFWSLLELQKVFSKGTFLLGLAETSLAGVANHLLDCFIYEDQIRPQDREELLRALLLKRSHAEDLGNLEGVKPAVLTRSGGASEPLLPHQPSLETQLYCGQAEGGSEGPSTSGTLKIPPDSETTLVLVGRANFLEKPVLGFVRLKEAVPLEDLVLPEPVGFLLVLLGPEAPHVDYTQLGRAAATLMTERVFRITASMAHNREELLRSLESFLDCSLVLPPTDAPSEKALLNLVPVQKELLRRRYLPSPAKPDPNLYNTLDLNGGKGGPGDEDDPLRRTGRIFGGLIRDIRRRYPYYLSDITDALSPQVLAAVIFIYFAALSPAVTFGGLLGEKTRNLMGVSELLISTAVQGILFALLGAQPLLVLGFSGPLLVFEEAFFSFCESNNLEYIVGRAWIGFWLILLVMLVVAFEGSFLVQYISRYTQEIFSFLISLIFIYETFSKLIKIFQDYPLQQTYAPVVMKPKPQGPVPNTALFSLVLMAGTFLLAMTLRKFKNSTYFPGKLRRVIGDFGVPISILIMVLVDSFIKGTYTQKLSVPDGLKVSNSSARGWVIHPLGLYRLFPTWMMFASVLPALLVFILIFLESQITTLIVSKPERKMIKGSGFHLDLLLVVGMGGVAALFGMPWLSATTVRSVTHANALTVMGKASGPGAAAQIQEVKEQRISGLLVSVLVGLSILMEPILSRIPLAVLFGIFLYMGVTSLSGIQLFDRILLLFKPPKYHPDVPFVKRVKTWRMHLFTGIQIICLAVLWVVKSTPASLALPFVLILTVPLRRLILPLIFRELELQCLDGDDAKVTFDEENGLDEYDEVPMPV
In the case of B1, the binding result in experiment [5] and in experiment [6] was “binds” in each case.

B2: Pregnancy Zone Protein (mouse PZP) (protein, UniProt Q61838 25-1495)
chain: ATAKPQYVVLVPSEVYSGVPEKACVSLNHVNETVMLSLTLEYAMQQTKLLTDQAVDKDSFYCSPFTISGSPLPYTFITVEIKGPTQRFIKKKSIQIIKAESPVFVQTDKPIYKPGQIVKFRVVSVDISFRPLNETFPVVYIETPKRNRIFQWQNIHLAGGLHQLSFPLSVEPALGIYKVVVQKDSGKKIEHSFEVKEYVLPKFEVIIKMQKTMAFLEEELPITACGVYTYGKPVPGLVTLRVCRKYSRYRSTCHNQNSMSICEEFSQQADDKGCFRQVVKTKVFQLRQKGHDMKIEVEAKIKEEGTGIELTGIGSCEIANALSKLKFTKVNTNYRPGLPFSGQVLLVDEKGKPIPNKNITSVVSPLGYLSIFTTDEHGLANISIDTSNFTAPFLRVVVTYKQNHVCYDNWWLDEFHTQADHSATLVFSPSQSYIQLELVFGTLACGQTQEIRIHYLLNEDIMKNEKDLTFYYLIKARGSIFNLGSHVLSLEQGNMKGVFSLPIQVEPGMAPEAQLLIYAILPNEELVADAQNFEIEKCFANKVNLSFPSAQSLPASDTHLKVKAAPLSLCALTAVDQSVLLLKPEAKLSPQSIYNLLPGKTVQGAFFGVPVYKDHENCISGEDITHNGIVYTPKHSLGDNDAHSIFQSVGINIFTNSKIHKPRFCQEFQHYPAMGGVAPQALAVAASGPGSSFRAMGVPMMGLDYSDEINQVVEVRETVRKYFPETWIWDLVPLDVSGDGELAVKVPDTITEWKASAFCLSGTTGLGLSSTISLQAFQPFFLELTLPYSVVRGEAFTLKATVLNYMSHCIQIRVDLEISPDFLAVPVGGHENSHCICGNERKTVSWAVTPKSLGEVNFTATAEALQSPELCGNKLTEVPALVHKDTVVKSVIVEPEGIEKEQTYNTLLCPQDTELQDNWSLELPPNVVEGSARATHSVLGDILGSAMQNLQNLLQMPYGCGEQNMVLFVPNIYVLNYLNETQQLTEAIKSKAINYLISGYQRQLNYQHSDGSYSTFGNHGGGNTPGNTWLTAFVLKAFAQAQSHIFIEKTHITNAFNWLSMKQKENGCFQQSGYLLNNAMKGGVDDEVTLSAYITIALLEMPLPVTHSAVRNALFCLETAWASISQSQESHVYTKALLAYAFALAGNKAKRSELLESLNKDAVKEEDSLHWQRPGDVQKVKALSFYQPRAPSAEVEMTAYVLLAYLTSESSRPTRDLSSSDLSTASKIVKWISKQQNSHGGFSSTQDTVVALQALSKYGAATFTRSQKEVLVTIESSGTFSKTFHVNSGNRLLLQEVRLPDLPGNYVTKGSGSGCVYLQTSLKYNILPVADGKAPFALQVNTLPLNFDKAGDHRTFQIRINVSYTGERPSSNMVIVDVKMVSGFIPMKPSVKKLQDQPNIQRTEVNTNHVLIYIEKLTNQTLGFSFAVEQDIPVKNLKPAPIKVYDYYETDEFTVEEYSAPFSDGSEQGNA
Take B2: in experiment [6], the binding result is “binds”.

B3: CD5L (mouse) (protein, UniProt Q9QWK4 22-352)
chain: ESPTKVQLVGGAHRCEGRVEVEHNGQWGTVCDDGWDRRDVAVVCRELNCGAVIQTPRGASYQPPASEQRVLIQGVDCNGTEDTLAQCELNYDVFDCSHEEDAGAQCENPDSDLLFIPEDVRLVDGPGHCQGRVEVLHQSQWSTVCKAGWNLQVSKVVCRQLGCGRALLTYGSCNKNTQGKGPIWMGKMSCSGQEANLRSCLLSRLENNCTHGEDTWMECEDPFELKLVGGDTPCSGRLEVLHKGSWGSVCDDNWGEKEDQVVCKQLGCGKSLHPSPKTRKIYGPGAGRIWLDDVNCSGKEQSLEFCRHRLWGYHDCTHKEDVEVICTDFDV
Regarding B3, the binding entry is given as “no binding” in experiment [7] and “binds” in experiment [6].
